Assay results as given in patent publication US6572788B2, “Amine oxide wood preservatives” (Lonza, Inc., priority 2000, dated 2003).

Columns and labels:
[1] = Leaching in water and soil of treated southern yellow pine wafers; settings: for Concentration of Preservative in Soil after 5 days / Concentration of Preservative in Wafer after 5 days: wafer treated with water and soil; for Concentration of Preservative in Soil after 7 days / Concentration of Preservative in Wafer after 7 days: leaching in water and soil, shaken 7 days
[2] = Corrosivity on steel substrates (carbon steel coupon, two weeks); settings: negative weight loss means a gain in weight
[3] = Water uptake test (waterproofing efficacy), weathered ponderosa pine wafers

Row | Compound | Concentration of Preservative in Soil after 5 days [1] | Concentration of Preservative in Wafer after 5 days [1] | Concentration of Preservative in Soil after 7 days [1] | Concentration of Preservative in Wafer after 7 days [1] | Weight Lost ([2]; listed as 0.3% didecyldimethyl ammonium chloride) | Weight Lost ([2]; listed as 1% didecyldimethyl ammonium chloride) | Water Uptake % of Weathered Wood ([3]; Day 0, Table 13) | Water Uptake % of Weathered Wood ([3]; Day 100, Table 13) | Weight Lost [2]
1 | CCCCCCCCCCCCCCCCCC[N+](C)(C)Cc1ccccc1.[Cl-] [Octadecylbenzyl dimethyl ammonium chloride, reference compound] | 0.1 % w/w | 1.3 % w/w |  |  |  |  |  |  | 
2 | CCCCCCCCCC[N+](C)(C)CCCCCCCCCC.[Cl-] [Didecyldimethyl ammonium chloride, didecyldimethylammonium chloride, reference compound] | 0.4 % w/w | 1.1 % w/w | 0.5 % w/w | 0.95 % w/w | 0.44% | 0.40% | 62% | 73% | 
3 | CCCCCCCCCCCC[N+](C)(C)[O-] [Dodecyl dimethylamine oxide, dodecyl dimethylamine oxide] | 05 % w/w | 0.7 % w/w | 0.15 % w/w | 0.5 % w/w |  |  |  |  | 
4 | CCCCCCCCCCCCCCCC[N+](C)(C)[O-] [Hexadecyl dimethylamine oxide, hexadecyl dimethylamine oxide] |  |  | 0.33 % w/w | 1.5 % w/w |  |  |  |  | −0.02^1%
5 | CCCCCCCCCC[N+](C)(C)[O-] [Decyldimethylamine oxide] |  |  |  |  |  |  |  |  | −0.02%
